# Several values for one entry are separate records, joined by “and”; a condition that tells them apart may be missing. Equal values may be shown once. The campaign covered roughly 24,000 compounds. About 50 (0.2%) were called active. Inconclusive means that the source gave no clear call. Such entries were picked first, then a sample of the others.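 The calls were made as follows: active = inhibition above 50%; inconclusive = compound itself fluorescent, judged against control cell fluorescence; inactive = the rest.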
# Amino acid sequences for entries named in this document (tags omitted).
# UniProt P13612, whole entry, looked up: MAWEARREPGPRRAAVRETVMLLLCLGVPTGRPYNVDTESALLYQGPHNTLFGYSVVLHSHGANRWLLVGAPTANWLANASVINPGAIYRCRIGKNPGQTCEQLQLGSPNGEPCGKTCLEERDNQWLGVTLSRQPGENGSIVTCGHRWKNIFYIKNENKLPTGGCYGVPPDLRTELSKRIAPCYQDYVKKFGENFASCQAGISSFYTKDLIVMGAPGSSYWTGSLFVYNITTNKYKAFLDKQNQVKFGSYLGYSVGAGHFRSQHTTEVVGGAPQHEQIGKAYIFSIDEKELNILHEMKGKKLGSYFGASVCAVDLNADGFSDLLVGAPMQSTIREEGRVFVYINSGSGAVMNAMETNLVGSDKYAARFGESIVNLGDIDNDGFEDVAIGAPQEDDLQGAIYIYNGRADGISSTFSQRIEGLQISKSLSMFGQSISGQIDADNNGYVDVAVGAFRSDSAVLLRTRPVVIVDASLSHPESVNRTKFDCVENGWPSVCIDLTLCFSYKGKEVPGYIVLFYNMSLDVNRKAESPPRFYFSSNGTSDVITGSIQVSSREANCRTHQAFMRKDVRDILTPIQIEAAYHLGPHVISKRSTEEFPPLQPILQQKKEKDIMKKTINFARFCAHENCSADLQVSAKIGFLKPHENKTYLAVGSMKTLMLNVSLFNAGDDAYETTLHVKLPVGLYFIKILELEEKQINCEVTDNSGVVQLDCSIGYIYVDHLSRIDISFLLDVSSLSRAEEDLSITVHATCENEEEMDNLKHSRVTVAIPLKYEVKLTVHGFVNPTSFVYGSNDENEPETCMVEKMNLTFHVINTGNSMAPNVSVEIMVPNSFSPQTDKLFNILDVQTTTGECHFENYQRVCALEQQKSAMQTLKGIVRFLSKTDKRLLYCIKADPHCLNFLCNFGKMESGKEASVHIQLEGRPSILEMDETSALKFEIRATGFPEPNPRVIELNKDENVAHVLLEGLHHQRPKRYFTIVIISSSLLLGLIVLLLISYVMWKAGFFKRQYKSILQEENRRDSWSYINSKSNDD
# Biological target: Integrin alpha-4 (Homo sapiens) (UniProt P13612)
# Test: blockers of LDV-FITC ligand binding on VLA-4 – Jurkat cells, Mn2+ activated, primary screen (AID 529);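 as to inhibition: 0% = Mn2+ stimulated cells lacking compound and 100% = ligand binding without Mn2+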
# Conditions: LDV-FITC binding with Mn2+, flow cytometry; stronger effect = higher value, screened at 10 µM (by protocol), 100% = Mn2+-driven binding gain fully reversed unless noted
row,Structure (SMILES),inhibition
1,CCN(Cc1nc2ccccc2c(=O)[nH]1)Cc1cc(=O)oc2cc(C)c(C)cc12,inconclusive
2,CSC1=NCCN1C(=O)c1ccc2c(c1)OCO2,inconclusive
3,Cn1c(=O)cc(SCC(=O)N2CCCC2)c2ccc(Cl)cc21,inconclusive
4,CC(C)Oc1cc(O)c2c(=O)c(-c3ccc(O)cc3)coc2c1,inconclusive
5,C/C=C/c1ccc(OCCn2cncn2)c(OC)c1,inconclusive
6,O=C(CN1CCOCC1)Nc1c2c(nc3c1CCC3)CCC2,"inactive: -12% [stronger effect = higher value, 100% = Mn2+-driven binding gain fully reversed, screened at 10 µM (by protocol)]"
7,O=C(Nc1ccc2c(c1)OCO2)OCc1ccccc1,inactive: -14.5%
8,Cc1csc(NC(=O)c2sc3nc(-c4cccs4)ccc3c2N)n1,inconclusive
9,O=C(Nc1ccc(S(=O)(=O)NC2CCCC2)cc1)c1cnccn1,inactive: 9%
10,Cc1n[nH]c(C)c1S(=O)(=O)N1CCN(C2CCCCC2)CC1,inactive: -11%
11,CCCCOc1cc(C(=O)NCCN(CC)CC)c2ccccc2n1,inactive: -14.5% and inactive: -2%
12,O=C(Cn1cnc2ccccc2c1=O)NCCC(=O)Nc1ccc2c(c1)OCCO2,inconclusive
13,COC(=O)c1cc2c(cc1NC(=O)CSCCc1ccccn1)OCO2,inconclusive
14,Cc1nn(C)c(C)c1S(=O)(=O)NC1CCCc2ccccc21 (stereo not drawn),inconclusive
15,CC(=O)Nc1nc(C=C(Cl)Cl)cs1,inconclusive
16,Cc1ccc(S(=O)(=O)CC(=O)N2CCCCCC2)cc1,inconclusive
17,OCC1N=C(c2ccccn2)OC1c1ccccc1 (stereo not drawn),inconclusive
18,COc1ccc2[nH]c3c(NCCN(C(C)C)C(C)C)ncnc3c2c1,inconclusive
19,CCOC(=O)Cn1c(=O)oc2cc(S(=O)(=O)N3CCn4c3nc3ccccc34)ccc21,inconclusive
20,O=C(Cn1ncc2c(=O)oc3ccccc3c21)N1CCc2ccccc2C1,inconclusive
21,Cn1cnc2c(sc3nc(N4CCOCC4)c4c(c32)CC(C)(C)OC4)c1=O,inactive: 7%
22,COCCCNC(=O)c1cc2c(-c3ccc(Cl)cc3)nn(C)c2s1,inconclusive
23,CCn1c(SCC(=O)Nc2cc(C)on2)nc2sc3c(c2c1=O)CCCC3,inconclusive
24,O=C(CN1CCCN(S(=O)(=O)c2ccc(Br)cc2)CC1)Nc1ccc2cn[nH]c2c1,inactive: -18.7%

row,Structure (SMILES),inhibition
1,CCOc1ccccc1C(=O)NC(C)c1ccc2c(c1)OCO2 (stereo not drawn),inconclusive
2,c1ccc(Cc2nnc3sc(-c4ccc5c(c4)OCCO5)nn23)cc1,inconclusive
3,CCC1c2ccc(C)n2CCN1C(=O)Nc1ccccc1C(=O)OC (stereo not drawn),inconclusive
4,Oc1[nH]c2ccccc2c1C=Nc1ccc2c(c1)OCCO2,inconclusive
5,Cc1ccc(S(=O)(=O)N(C)Cc2nc(-c3ccc(Br)cc3)no2)cc1,inconclusive
6,CCOCC(=O)Nc1c(C(=O)Nc2ccc(OC)cc2OC)oc2ccccc12,inactive: -14.7%
7,CCOC(=O)c1ccc(NC(=O)CSc2nnc(Cn3c(=O)sc4ccccc43)n2C)cc1,inconclusive
8,O=S(=O)(c1ccc2oc(-c3ccncc3)nc2c1)c1ccc2oc(-c3ccncc3)nc2c1,inactive: -16%
9,COc1cc2c(C(=O)NCc3ccc4c(c3)OCO4)cn(CC(C)C)c(=O)c2cc1OC,inconclusive
10,COc1ccc(S(=O)(=O)Nc2ccc(C)cc2)cc1OC,inactive: -20%
11,O=C1OC(c2ccc(Br)cc2)=N/C1=C\N1CCCCC1,inconclusive
12,Cc1cc(SCC(=O)c2ccccc2)n2nc(C)nc2n1,inactive: 4.1%
13,Cc1ccc(S(=O)(=O)Cn2nnnc2CN(Cc2ccco2)CC2CCCO2)cc1 (stereo not drawn),inactive: -8%
14,O=C(Nc1cccc(C(F)(F)F)c1)C1CCCN1S(=O)(=O)c1cccc2cccnc12 (stereo not drawn),inconclusive
15,CCc1nnc(NC(=O)CCC(=O)O)s1,"inactive: -11% [stronger effect = higher value, 100% = Mn2+-driven binding gain fully reversed, screened at 10 µM (by protocol)]"
16,CSC1=NCCN1C(=O)c1cccc(Br)c1,inconclusive
17,Cc1ccc(/C=N/c2sc3c(c2C#N)CCC3)s1,inconclusive
18,CC(=O)Nc1ccccc1N(C)S(=O)(=O)c1ccc(C)cc1,inactive: -9%
19,Cc1oc(-c2cccs2)nc1CS(=O)CC(=O)NCCCN1CC(C)CC(C)C1 (stereo not drawn),inconclusive
20,N#CC1=C(N)SC(N)=C(C#N)C1c1ccc(C(F)(F)F)cc1,inactive: -53.5%
21,CCOC(=O)c1c(C)[nH]c(C(=O)Cn2c(=O)c3c(ncn3CC)n(Cc3ccccc3)c2=O)c1C,inactive: 16%
22,Cc1nc2sc(C(c3ccc(Cl)cc3)N3CCN(C(=O)c4ccco4)CC3)c(O)n2n1 (stereo not drawn),inconclusive
23,Cc1ccc(-c2noc(CN(C(=O)C34CC5CC(CC(C5)C3)C4)C(C)C)n2)cc1,inconclusive
24,CCOC(=O)c1ccccc1NC(=O)CCNC(=O)Cn1cnc2ccccc2c1=O,inconclusive

# A section from further up, for reference:
row,Structure (SMILES),inhibition
8,O=S(=O)(c1ccc2oc(-c3ccncc3)nc2c1)c1ccc2oc(-c3ccncc3)nc2c1,inactive: -16%
9,COc1cc2c(C(=O)NCc3ccc4c(c3)OCO4)cn(CC(C)C)c(=O)c2cc1OC,inconclusive
10,COc1ccc(S(=O)(=O)Nc2ccc(C)cc2)cc1OC,inactive: -20%
11,O=C1OC(c2ccc(Br)cc2)=N/C1=C\N1CCCCC1,inconclusive

# (more compounds)

row,Structure (SMILES),inhibition
1,CCOC(=O)c1c(C)oc2c1c1c(c3ccccc32)OCN(Cc2ccccn2)C1,active: 79%
2,Cc1cccc(NC(=O)CS(=O)(=O)c2c[nH]c3ccccc23)c1C,inconclusive
3,Cc1ccc2oc(=O)c3cnn(CC(=O)NCCN(C)C)c3c2c1,inconclusive
4,COc1ccc(N2CCC(CNC(=O)Nc3ccc(OC)cc3OC)C2)cc1 (stereo not drawn),inconclusive
5,CC(=O)N(C)C1(c2nnnn2CCOC(=O)Nc2cccc3ccccc23)CCCC1,inactive: -22.5%
6,O=c1c2c(nc3cc(-c4ccccc4)[nH]n13)CCC2,inconclusive
7,COc1ccc(OC)c(C2C(C(=O)O)c3ccccc3C(=O)N2C)c1 (stereo not drawn),inconclusive
8,CCOC(=O)c1c(C)oc2c1c(C=NC1CCS(=O)(=O)C1)c(O)c1ccccc12 (stereo not drawn),inconclusive
9,COc1cc(N2CCOCC2)ncn1,inconclusive
10,Fc1cc(Br)ccc1Nc1nc2ccccc2n2nnnc12,inconclusive
11,COC(=O)c1ccc(C2CC(=O)NC3=C2C(=O)CCC3)cc1 (stereo not drawn),inconclusive
12,CCOC(=O)c1[nH]c(C)c(C(=O)NCc2ccc(Cl)cc2)c1C,inconclusive
13,Cc1sc(NC(=O)CSc2nnc(COc3ccccc3)n2C)c(C#N)c1C,inconclusive
14,Cc1ccc(C)c(N2CCN(C(=O)CCCOc3cc(=O)n(C)c4ccccc34)CC2)c1,inconclusive
15,Cc1ccc2[nH]c(=S)cc(C)c2c1,inconclusive
16,CCOc1nc(SCCOc2ccccc2)nc(N(C)C)n1,inactive: 4.5%
17,CSC1=NCCN1C(=O)Cc1cccs1,inactive: 12%
18,Cc1ccc(-c2nc(CS(=O)CC(=O)NCCCN3CC(C)CC(C)C3)c(C)o2)cc1 (stereo not drawn),inconclusive
19,CC(C(=O)N1c2ccc(F)cc2CCC1C)N1C(=O)c2ccccc2C1=O (stereo not drawn),inactive: -25%
20,CCOc1ccc(C(=O)Nc2ccc(NC(=O)c3ccco3)c(Cl)c2)cc1Br,inconclusive
21,COc1cc(N2C(=O)NC3CC2(C)Oc2ccc(Br)cc23)cc(OC)c1OC (stereo not drawn),inactive: -14%
22,COc1ccc(-c2nc(CS(=O)CC(=O)N3CCc4ccccc4C3)c(C)o2)cc1 (stereo not drawn),inconclusive
23,COC(=O)C(C)Sc1nc2c(cnn2-c2ccc(C)cc2)c(=O)[nH]1 (stereo not drawn),inconclusive
24,FC(F)(F)c1cc(-c2ccco2)nc(NCc2cccs2)n1,inconclusive

row,Structure (SMILES),inhibition
1,C/C=C(\CS(=O)(=O)c1ccccc1)S(=O)(=O)c1ccccc1,inactive: -13.5%
2,COC(=O)C1C(=O)C2=C(CC1C)NC(=O)CC2c1cccc(C)c1 (stereo not drawn),inconclusive
3,Cc1nn(-c2ccc(C(=O)O)cc2)c(=O)c2ccccc12,inconclusive
4,CCc1ccccc1S(=O)(=O)Cc1ccc(C(=O)NCc2ccc3c(c2)OCO3)o1,inconclusive
5,O=C(Nc1nc(-c2cccnc2)cs1)c1ccc(S(=O)(=O)N2CCOCC2)cc1,inconclusive
6,Cc1nn(-c2ccc(F)cc2)c2nc(N)c(C#N)c(-c3cccs3)c12,inconclusive
7,Cc1cc(C)nc(N(C#N)Cc2ccccc2Cl)n1,inconclusive
8,Cc1c(C(=O)Nc2ccccc2)sc2nc(-c3ccccc3)cn12,active: 74%
9,CC(C)(C)c1ccc(C(=O)CCCSC2=C(C#N)C(c3ccco3)C3=C(CCCC3=O)N2)cc1 (stereo not drawn),inconclusive
10,COc1cc2[nH]c3c(N4CCN(c5ccccn5)CC4)ncnc3c2cc1OC,inconclusive
11,CCC(=O)Nc1cc(C)c(NC(=O)C23CC4CC(CC(C4)C2)C3)cn1,inconclusive
12,O=C(c1ccccc1)c1ccc2nc(N3CCN(C(=O)c4ccco4)CC3)c3nncn3c2c1,inconclusive
13,C=CCSC1=C(C#N)C(c2ccccc2C)CC(=O)N1 (stereo not drawn),inconclusive
14,CCN(CC)c1ccc2cc(-c3nc4ccccc4[nH]3)c(=O)oc2c1,inconclusive
15,CSC1=NCCN1C(=O)c1ccc(S(=O)(=O)N2CCCCC2)cc1,inconclusive
16,CCC(C)(C(=O)NC1CCCC1)N(C(=O)CNC(C)=O)c1ccc(C)cc1 (stereo not drawn),"inactive: -12% [stronger effect = higher value, 100% = Mn2+-driven binding gain fully reversed, screened at 10 µM (by protocol)]"
17,CCOCCCNC(=O)C(c1ccccc1)N(Cc1ccc2c(c1)OCO2)C(=O)CNC(C)=O (stereo not drawn),inactive: -3%
18,COc1cccc(-c2nn(C)c3sc(C(=O)Nc4ccc5c(c4)OCCO5)cc23)c1,inconclusive
19,COC(=O)C1=C(C(=O)c2ccc(C)cc2)C(c2ccc(OC)c(OC)c2)n2nnnc2N1 (stereo not drawn),inconclusive
20,Cn1c(Cn2c(=O)sc3ccccc32)nnc1SCC(=O)NC1CCCCC1,inconclusive
21,Cc1oc(-c2cccs2)nc1CS(=O)CC(=O)NC1CCCCCC1 (stereo not drawn),inconclusive

# Sorted by molecular weight (largest number first): some entries from above
row,Structure (SMILES),inhibition
4,CCc1ccccc1S(=O)(=O)Cc1ccc(C(=O)NCc2ccc3c(c2)OCO3)o1,inconclusive
18,COc1cccc(-c2nn(C)c3sc(C(=O)Nc4ccc5c(c4)OCCO5)cc23)c1,inconclusive
7,Cc1cc(C)nc(N(C#N)Cc2ccccc2Cl)n1,inconclusive
